The target in assay [1] is Myc-tagged TAZ (UniProt Q9GZV5). In words: co-IP; HEK-293T cells co-transfected with Flag-PSMA1 and Myc-TAZ (or deletion mutants); immunoprecipitation with anti-Flag and anti-Myc antibodies, immunoblot. On the technique in general: Immunoblotting shows a protein as a band on a membrane.
In assay [2] the target is transcriptional co-activator with PDZ-binding motif (TAZ), endogenous (human (endogenous in AGS and BGC-823)) (UniProt Q9GZV5). The experiment in a line: co-IP; reciprocal co-IP of endogenous proteins with anti-PSMA1 and anti-TAZ antibodies, IgG as control; AGS and BGC-823 cells, RIPA lysis buffer, protein A/G agarose, overnight at 4 °C, immunoblot.

Protein sequences, listed by entry. Tags and fused reporters are not part of them.
UniProt Q9GZV5: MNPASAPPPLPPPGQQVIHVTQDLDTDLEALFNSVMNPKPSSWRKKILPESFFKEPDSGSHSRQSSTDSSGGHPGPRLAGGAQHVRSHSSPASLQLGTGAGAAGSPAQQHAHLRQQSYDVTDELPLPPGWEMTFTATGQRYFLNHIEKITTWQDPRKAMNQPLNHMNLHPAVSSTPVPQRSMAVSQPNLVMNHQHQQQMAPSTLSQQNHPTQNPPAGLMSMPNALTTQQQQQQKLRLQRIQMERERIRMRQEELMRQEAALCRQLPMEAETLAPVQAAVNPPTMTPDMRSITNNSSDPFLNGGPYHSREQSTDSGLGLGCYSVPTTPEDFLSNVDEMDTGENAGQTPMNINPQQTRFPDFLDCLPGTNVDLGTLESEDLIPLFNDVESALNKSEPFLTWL
UniProt P25786: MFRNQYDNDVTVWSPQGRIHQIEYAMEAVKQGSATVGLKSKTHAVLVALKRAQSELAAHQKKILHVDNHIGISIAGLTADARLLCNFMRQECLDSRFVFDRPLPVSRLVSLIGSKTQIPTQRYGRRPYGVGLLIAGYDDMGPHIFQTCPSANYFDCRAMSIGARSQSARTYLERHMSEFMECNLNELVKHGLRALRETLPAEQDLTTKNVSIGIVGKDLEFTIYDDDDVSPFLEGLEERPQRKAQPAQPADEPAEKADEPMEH

No constants are given. Whether binding was seen depends on the method and setting. Binding seen in cells or lysates may run through a third protein. Some binding calls cover weakened binding; strength is not graded here.

Regarding “Flag-tagged PSMA1 (from UniProt P25786 1-263)”, in assay [1], the binding result is listed as “binds”.
In the case of “proteasome subunit alpha type 1 (PSMA1), endogenous (from UniProt P25786 1-263)”, the binding result in assay [2] is given as “binds”.

For the origin of these results see PMC9691733.
